The source of these data is PMC5996148.

Some of the results follow.

Common to all, as to assay: protein microarray (ProtoArray v5.0), streptavidin-Alexa Fluor 647
Common to all, as to settings: 3'-biotin; 20 mM Tris (pH 7.5), 5 mM MgCl2, 100 mM KCl, 0.1% Tween-20, A/T-rich and random oligonucleotide blockers; temperature not stated; high values mean tight binding

For assay [1], the system named is SNX19 (human).
The test system of assay [2] is SNX24 (human).
Assay [3] relates to SNX4 (human).
The subject of assay [4] is SOCS2 (human).
Assay [5] deals with SOCS3 (human).
Assay [6] relates to SOD1 (human).
In assay [7] the test system is SORD (human).
In assay [8] the test system is SP100 (human).
For assay [9], the system named is SPAG16 (human).
Assay [10] relates to SPAG6 (human).
For assay [11], the system named is SPAG8 (human).
Assay [12] has as its system SPAG9 (human).
Assay [13] deals with SPCS2 (human).
For assay [14], the system named is SPDEF (human).
For assay [15], the system named is SPG20 (human).
The test system of assay [16] is SPG21 (human).
The subject of assay [17] is SPHK1 (human).
Assay [18] relates to SPN (human).
Assay [19] concerns SPP1 (human).
Assay [20] deals with SPRY domain-containing protein 4 (human).

For “GGGAGGCTGAGGCAGG [G4-1 biotinylated (PQS2)]”, the binding signal in assay [1] was -0.328 z-score; in assay [2] it was -0.252 z-score; in assay [3] it was -0.294 z-score; in assay [4] it was -0.281 z-score; in assay [5] it was -0.305 z-score; in assay [6], -0.353 z-score. In addition, the binding signal is -0.316 z-score in [7]; -0.329 z-score in assay [8]; -0.35 z-score in assay [9]; -0.332 z-score in assay [10]; -0.327 z-score in assay [11]; -0.334 z-score in [12]. In addition, the binding signal in assay [13] was -0.333 z-score; in [14] it was -0.34 z-score; in [15], -0.291 z-score; in [16], -0.375 z-score; in assay [17], -0.348 z-score; in [18] it was -0.34 z-score. The figures for the binding signal in assay [19] and in assay [20] were -0.305 z-score and -0.293 z-score, respectively.
